## Library screen at single concentrations

Measurements from “University of Dundee, Small-Polar-MMV Screening Library” (2021), ChEMBL document CHEMBL3988442.

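Whole-parasite assay of Trypanosoma brucei over 72 hours; the read-out is not stated. Tested at 10 µM. Higher reads as stronger inhibition (inferred: compounds with an IC50 in retests scored well above the rest). Values scatter widely below zero; nearly all retest evidence comes from the higher of the two concentrations used. Size under these conditions: about 2,700 compounds, about 14 of them at 50% or above in at least one test.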

Results are given as percent effect. The record does not define 0% and 100%; most values in the screen are far below 50% and negative numbers occur (in some assays of this library far below -100). This is an unselected part of the compounds tested.

With Cc1nc(C2CCCN(C(=O)COCCc3ccccc3)C2)no1 (stereo not drawn) the screen gave -27.48%.
With Cc1cnn(CC(C)NCc2ccccc2OCc2cccnc2)c1 (stereo not drawn) the screen gave 0.9591%.
With CCn1cc(NC(=O)NCC(C)N2CCCC2)cn1 (stereo not drawn) the screen gave -16.75%.
With Cc1nccn1C1CCCN(C(=O)COCC2CC2)C1 (stereo not drawn) the screen gave -35.88%.
With Cc1cccc(C2(C(=O)NCC3CCN(CC(F)(F)F)C3)CCC2)c1 (stereo not drawn) the screen gave -11.76%.
With Cc1cc(CN2CCOC(Cn3nc(C)cc3C)C2)on1 (stereo not drawn) the screen gave -0.9064%.
With Cc1ocnc1C(=O)N1CCCN(Cc2cscn2)CC1 the screen gave -71.52%.
With CC(Cn1cccn1)NC(=O)NCc1ccoc1 (stereo not drawn) the screen gave -56.34%.
With CCc1ocnc1C(=O)N1CCCC1c1noc(C2CC2)n1 (stereo not drawn) the screen gave -71.07%.
With CCOCCN1CCN(Cc2cccc(C(=O)N(C)C)c2)CC1C (stereo not drawn) the screen gave -34.24%.
With CC(C(=O)NCCOc1ccccc1)n1cncn1 (stereo not drawn) the screen gave -19.05%.
With c1ncn(CC2CCCN2Cc2csc(C3CCCCC3)n2)n1 (stereo not drawn) the screen gave -18.51%.
With Cc1cnn(CC2CCCN2CCCS(=O)(=O)N(C)C)c1 (stereo not drawn) the screen gave -3.234%.
With CCc1nc(C2CCCN(C(=O)CC3CCOCC3)C2)no1 (stereo not drawn) the screen gave -51.97%.
With CC1CN(CC(=O)NC(C2CC2)C2CC2)CCN1Cc1nccn1C (stereo not drawn) the screen gave -69.3%.
With Cc1cnn(CC2CCCN2C(=O)c2csc(C(C)C)n2)c1 (stereo not drawn) the screen gave -85.9%.
With CC(C)NC(=O)Nc1ccc(CNCc2ccc(OC(F)F)cc2)cc1 the screen gave -76.38%.
With CCn1cc(NC(=O)NCCc2ccc3c(c2)OCCO3)cn1 the screen gave -41.94%.
With Cc1cc(C2CCCN(C(=O)COc3cc(C)on3)C2)n[nH]1 (stereo not drawn) the screen gave -28.57%.
With C1CC(NCc2nnc(C3CC3)o2)CN(Cc2noc(C3CC3)n2)C1 (stereo not drawn) the screen gave -40.33%.
With CC(C)c1noc(C(C)N2CCN(Cc3nnc(C4CC4)o3)CC2)n1 (stereo not drawn) the screen gave -10.27%.
With Cc1cnn(CCNCc2cccc(C#N)c2)c1 the screen gave -43.82%.
With CCc1ocnc1C(=O)N1CCCC1c1noc(C(C)C)n1 (stereo not drawn) the screen gave -16.74%.
With COc1c(C)cnc(CN2CCOC(Cn3cc(C)cn3)C2)c1C (stereo not drawn) the screen gave 20.98%.
With CN(C)CC1CN(Cc2coc(-c3ccccc3)n2)CCO1 (stereo not drawn) the screen gave -12.24%.
With CCN(CC)C(=O)NCCc1ccn(-c2ccccc2)n1 the screen gave 99.69%.
With O=C(CCc1nccs1)N1CCN(c2ccc(Cl)cn2)CC1 the screen gave -59.14%.
With NC(=O)CN1CCC(NC(=O)COc2ccc(Cl)c(Cl)c2)CC1 the screen gave -32.49%.
With Cc1cc(C2CCCN(C(=O)Cc3csc(C(C)C)n3)C2)n[nH]1 (stereo not drawn) the screen gave -48.67%.
With CC(C)(O)CN1CCN(C(=O)c2ccc3c(c2)COC3)CC1 the screen gave -8.193%.
With CS(=O)(=O)NCC1CCCN(C(=O)COCC2CC2)C1 (stereo not drawn) the screen gave 3.103%.
With O=C(CCc1ccc2c(c1)OCO2)N1CCCCC1Cn1cccn1 (stereo not drawn) the screen gave -47.62%.
With CCNc1cc2c(nn1)CCN(C(=O)c1cc(C)n(C3CC3)c1C)C2 the screen gave -26.74%.
With COCCN1CCN(C(C)c2nc(C3CC3)no2)CC1 (stereo not drawn) the screen gave -78.77%.
With O=C(c1cc(Cl)c2c(c1)OCO2)N1CCCC(n2cncn2)C1 (stereo not drawn) the screen gave -13.93%.
With Cn1cnnc1C1CCCN(C(=O)c2cc(Cl)cc(Cl)c2)C1 (stereo not drawn) the screen gave -26.27%.
With CCc1nc(C2CCCN2Cc2nnc(C3CCC3)o2)no1 (stereo not drawn) the screen gave -36.36%.
With Nc1nc(CN2CCCCC2Cn2cncn2)nc2ccccc12 (stereo not drawn) the screen gave -56.01%.
With Cn1cc(C(=O)NCc2ccc(N3CCCC3)nc2)ccc1=O the screen gave -21.32%.
With Cc1cnn(CC2CCCN2C(=O)c2n[nH]c(=O)c3ccccc23)c1 (stereo not drawn) the screen gave -48.95%.

Repeated from the top, 4 entries:

{"structure": "Cc1nc(C2CCCN(C(=O)COCCc3ccccc3)C2)no1", "stereo": "stereo not drawn", "percent effect": -27.48}
{"structure": "Cc1cnn(CC(C)NCc2ccccc2OCc2cccnc2)c1", "stereo": "stereo not drawn", "percent effect": 0.9591}
{"structure": "CCn1cc(NC(=O)NCC(C)N2CCCC2)cn1", "stereo": "stereo not drawn", "percent effect": -16.75}
{"structure": "Cc1nccn1C1CCCN(C(=O)COCC2CC2)C1", "stereo": "stereo not drawn", "percent effect": -35.88}